Source: publication PMC3954793, “SHP-2 Binds to Caveolin-1 and Regulates Src Activity via Competitive Inhibition of CSK in Response to H2O2 in Astrocytes” (PLoS ONE, 2014)
No constants are given. Whether binding was seen depends on the method and setting. For part of these data: Binding seen in cells or lysates may run through a third protein. Some binding calls cover weakened binding; strength is not graded here. Each block holds one binder with its values, some of them ahead of it.

Legend:
[1] = target: T1, caveolin-1 (human (endogenous in CRT-MG)), Q03135; test: co-IP; CRT-MG whole-cell lysates (700 µg, RIPA buffer), cells treated with or without H2O2 for 10 min, also after GFP, CSK or SHP-2 siRNA for 48 h; immunoprecipitation with anti-caveolin-1, immunoblot; conditions: remark: other sources report otherwise
T1 chain: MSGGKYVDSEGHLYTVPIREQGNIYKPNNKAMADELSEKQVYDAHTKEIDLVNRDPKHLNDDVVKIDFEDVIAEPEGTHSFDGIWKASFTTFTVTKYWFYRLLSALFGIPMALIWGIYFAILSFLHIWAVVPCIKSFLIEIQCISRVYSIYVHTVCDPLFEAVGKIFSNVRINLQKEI

[2] = target: T2, wild-type (WT) caveolin-1 (human), Q03135; test: co-IP; HEK 293T cells transfected with caveolin-1 WT or Y14A, 5 mM H2O2 for 10 min; 700 µg lysate in RIPA buffer; immunoprecipitation with anti-CSK, anti-SHP-2 or anti-caveolin-1, immunoblot; conditions: remark: other sources report otherwise
T2 chain: T1 chain

[3] = target: recombinant glutathione S-transferase (GST)-CSK (UniProt P41240); test: SPR; SPRmicro system (K-MAC), rGST-SHP-2 or rGST-CSK immobilised on a G1 gold chip (NHS monolayer), Cav-1 pY 14 peptide injected at 10 to 1,000 µg/mL, 1×TBS, 20 µL/min; both purified

binding [1]: binds | binding [2]: binds
B1: c-Src tyrosine kinase (CSK), P41240 1-450 (enzyme)
chain: MSAIQAAWPSGTECIAKYNFHGTAEQDLPFCKGDVLTIVAVTKDPNWYKAKNKVGREGIIPANYVQKREGVKAGTKLSLMPWFHGKITREQAERLLYPPETGLFLVRESTNYPGDYTLCVSCDGKVEHYRIMYHASKLSIDEEVYFENLMQLVEHYTSDADGLCTRLIKPKVMEGTVAAQDEFYRSGWALNMKELKLLQTIGKGEFGDVMLGDYRGNKVAVKCIKNDATAQAFLAEASVMTQLRHSNLVQLLGVIVEEKGGLYIVTEYMAKGSLVDYLRSRGRSVLGGDCLLKFSLDVCEAMEYLEGNNFVHRDLAARNVLVSEDNVAKVSDFGLTKEASSTQDTGKLPVKWTAPEALREKKFSTKSDVWSFGILLWEIYSFGRVPYPRIPLKDVVPRVEKGYKMDAPDGCPPAVYEVMKNCWHLDAAMRPSFLQLREQLEHIKTHELHL
modifications: here or on the partner: phosphotyrosine at 14 after H2O2 treatment

binding [3]: binds
Binder: GHLYTVPIREQGN (phosphotyrosine at position 4 of the peptide (Tyr 14 of caveolin-1)) [caveolin-1 phosphopeptide Cav-1 pY 14]
